Data from patent US20120258113A1, “SUSBSTANTIALLY PURE STEROIDOGENESIS INDUCING PEPTIDE AND USES THEREOF” (CLARK ATLANTA UNIVERSITY, priority 2006, published 2012).
For at least one compound, name, drawing or mass did not settle the structure.

Test system: Leydig cells
Assay: Effect of kinase inhibitors on SIP-stimulated DNA synthesis in Leydig cells
Assay type: cell-based, rat
Conditions: PD98059 25 μM; LY294002 5 μM; with SIP
Procedure: Immature rat Leydig cells and various cancer cell lines were starved for 48 hours before treatment. The cells were then treated with SIP, the polypeptide having the amino acid sequence identified as SEQ ID NO:2, LH, and EGF for 18 hours. The incubation media were collected (Leydig cells) and analyzed for total androgen production. ^3H-thymidine (1 μCi/ml) was added to the cells for further 4 hours incubation. Then the hot media were removed; ice-cold water was added to the cells which were lysed by sonication. The cell lysates were filterd through DE81 ion-exchanger filters. The filter membranes were then put in vials filled with scintillation fluid, and the radioactivity was measured by a Beckman β-counter.
Immature Leydig cells were cultured for 18 h and treated with different concentrations of oLH, SIP and EGF. For some experiments, the cells were treated with oLH or SIP for 18 h in the absence or presence of inhibitors of tyrosine kinase (Genistein; 10 uM), MAPK-kinase (PD98059; 25 μM), PI3-kinase (LY294002; 5 μM) or PKA (H89; 10 μM) to determine the intracellular signaling pathways involved in the effects of SIP on androgen production. The incubation media were collected and analyzed for total androgens using a radioimmunoassay, as described previously (Dickson et al., 2002). […] All samples were analyzed in the same assay, and the intra-assay coefficient of variation was <10%.

Structure (SMILES): O=c1cc(N2CCOCC2)oc2c(-c3ccccc3)cccc12 [LY294002]
- effect of inhibitor on SIP effects on DNA synthesis: blocks the effects of SIP on DNA synthesis
